Measured values as given in article PMC8914601.
For at least one entry, the source does not settle the construct or the ends of the probe.

Target: alpha-synuclein fibrils (aggregates) (UniProt P37840)
Assay: single-molecule TIRF imaging (AD-PAINT) on surface-captured fibrils
Details: 100 nM Aptamer-DS1, 1 nM IS1-cy3B, 5 uM thioflavin-T, PBS with 100 nM aptamer-DS1, 1 nM IS1-cy3B, aptamer annealed in 1 M KCl, 0.1 M lithium cacodylate pH 7.3, imaging temperature not given, recombinant protein, folded or branched DNA

“GCCTGTGGTGTTGGGGCGGGTGCGTTATACATCTA [Aptamer-DS1]”: binds.
